Measurements reported in publication PMC4676636.
For at least one entry, the source does not settle the construct or the ends of the probe. Results from cells or extracts need not show a direct contact. No signal at the amounts used counts as a negative.

The chains behind the UniProt entries cited, without tags or fusion partners. Residues count along the entry.
UniProt Q04912, 25-1400: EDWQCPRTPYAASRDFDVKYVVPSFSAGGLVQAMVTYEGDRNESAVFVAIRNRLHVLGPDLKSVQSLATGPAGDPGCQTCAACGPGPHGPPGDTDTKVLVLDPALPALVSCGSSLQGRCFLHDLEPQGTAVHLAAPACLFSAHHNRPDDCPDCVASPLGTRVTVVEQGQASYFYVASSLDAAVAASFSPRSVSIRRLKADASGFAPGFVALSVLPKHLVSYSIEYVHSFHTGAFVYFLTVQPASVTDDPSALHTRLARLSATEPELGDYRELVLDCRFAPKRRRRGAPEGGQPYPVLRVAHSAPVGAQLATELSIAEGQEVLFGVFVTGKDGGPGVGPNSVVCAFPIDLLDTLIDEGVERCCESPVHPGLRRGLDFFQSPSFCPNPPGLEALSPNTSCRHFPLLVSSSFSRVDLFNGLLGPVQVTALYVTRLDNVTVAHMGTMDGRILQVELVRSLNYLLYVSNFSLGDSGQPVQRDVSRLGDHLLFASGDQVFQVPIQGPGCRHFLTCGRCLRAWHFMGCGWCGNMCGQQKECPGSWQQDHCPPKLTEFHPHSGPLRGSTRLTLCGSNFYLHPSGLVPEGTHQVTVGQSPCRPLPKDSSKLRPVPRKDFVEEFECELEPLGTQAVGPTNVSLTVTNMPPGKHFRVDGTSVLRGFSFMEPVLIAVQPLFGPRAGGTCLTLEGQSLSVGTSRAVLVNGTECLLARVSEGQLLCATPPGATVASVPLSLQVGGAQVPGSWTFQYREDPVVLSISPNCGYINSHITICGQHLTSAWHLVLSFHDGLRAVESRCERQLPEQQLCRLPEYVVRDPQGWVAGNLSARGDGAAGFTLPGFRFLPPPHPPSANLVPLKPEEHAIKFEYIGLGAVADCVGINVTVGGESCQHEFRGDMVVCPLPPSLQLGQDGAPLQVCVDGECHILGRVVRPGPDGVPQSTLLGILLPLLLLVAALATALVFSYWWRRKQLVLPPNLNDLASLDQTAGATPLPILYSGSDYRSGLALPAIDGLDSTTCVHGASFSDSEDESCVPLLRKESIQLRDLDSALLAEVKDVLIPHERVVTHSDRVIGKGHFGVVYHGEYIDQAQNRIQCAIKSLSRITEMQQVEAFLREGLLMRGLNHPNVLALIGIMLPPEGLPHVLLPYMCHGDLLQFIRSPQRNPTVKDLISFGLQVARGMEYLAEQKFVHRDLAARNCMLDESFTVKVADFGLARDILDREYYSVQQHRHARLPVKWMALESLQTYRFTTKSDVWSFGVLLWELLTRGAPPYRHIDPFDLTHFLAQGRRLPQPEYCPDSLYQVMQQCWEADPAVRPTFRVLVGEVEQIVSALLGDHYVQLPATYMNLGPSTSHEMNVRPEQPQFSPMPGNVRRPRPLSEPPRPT
UniProt P08581, 25-1390: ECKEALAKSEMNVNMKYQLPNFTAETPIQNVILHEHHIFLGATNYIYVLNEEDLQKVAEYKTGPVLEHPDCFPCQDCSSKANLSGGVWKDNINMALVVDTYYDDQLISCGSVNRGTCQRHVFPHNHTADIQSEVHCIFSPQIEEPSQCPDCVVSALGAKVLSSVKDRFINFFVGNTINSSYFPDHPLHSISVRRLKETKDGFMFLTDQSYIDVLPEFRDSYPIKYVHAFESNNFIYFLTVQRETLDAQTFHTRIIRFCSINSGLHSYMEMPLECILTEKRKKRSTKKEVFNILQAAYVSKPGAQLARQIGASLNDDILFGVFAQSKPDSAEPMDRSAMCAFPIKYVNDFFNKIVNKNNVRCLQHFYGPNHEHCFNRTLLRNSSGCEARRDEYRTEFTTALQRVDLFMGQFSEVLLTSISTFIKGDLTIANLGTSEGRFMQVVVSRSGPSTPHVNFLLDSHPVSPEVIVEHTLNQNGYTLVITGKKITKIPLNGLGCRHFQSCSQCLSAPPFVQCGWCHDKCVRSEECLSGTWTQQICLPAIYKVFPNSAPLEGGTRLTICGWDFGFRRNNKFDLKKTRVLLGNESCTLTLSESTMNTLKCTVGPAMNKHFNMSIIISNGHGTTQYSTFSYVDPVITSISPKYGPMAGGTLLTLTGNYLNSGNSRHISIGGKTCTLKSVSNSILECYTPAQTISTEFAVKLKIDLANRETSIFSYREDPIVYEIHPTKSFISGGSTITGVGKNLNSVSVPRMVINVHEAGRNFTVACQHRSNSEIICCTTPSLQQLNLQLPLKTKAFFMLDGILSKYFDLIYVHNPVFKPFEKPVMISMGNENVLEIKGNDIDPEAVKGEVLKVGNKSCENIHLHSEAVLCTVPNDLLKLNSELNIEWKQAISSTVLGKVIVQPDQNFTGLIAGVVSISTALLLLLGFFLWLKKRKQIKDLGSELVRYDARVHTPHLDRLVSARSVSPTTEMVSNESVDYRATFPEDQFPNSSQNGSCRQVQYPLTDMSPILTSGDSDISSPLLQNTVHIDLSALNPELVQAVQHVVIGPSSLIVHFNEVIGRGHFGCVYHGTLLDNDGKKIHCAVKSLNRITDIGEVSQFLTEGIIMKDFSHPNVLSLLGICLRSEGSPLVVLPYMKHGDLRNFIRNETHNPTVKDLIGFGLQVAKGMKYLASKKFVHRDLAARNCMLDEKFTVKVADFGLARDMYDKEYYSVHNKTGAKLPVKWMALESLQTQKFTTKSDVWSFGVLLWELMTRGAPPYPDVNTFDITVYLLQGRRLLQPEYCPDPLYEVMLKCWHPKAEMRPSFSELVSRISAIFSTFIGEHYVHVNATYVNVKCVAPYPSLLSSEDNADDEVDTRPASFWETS

What was measured:
[1] = biological target: RON on MDA-MB-453 cells (Homo sapiens) (UniProt Q04912); experiment: flow cytometry; details: MDA-MB-453 cells, flow cytometry: PBS/1% BSA, 4 C, 30 min, protein on the cell surface
[2] = biological target: c-Met on EBC-1 cells (Homo sapiens) (UniProt P08581); experiment: flow cytometry; details: flow cytometry: PBS/1% BSA, 4 C, 30 min, protein on the cell surface
[3] = label: 3'-biotin (CLN118-B), single-stranded DNA
[4] = 2'-O-methyl purines and 2'-fluoro pyrimidines (mRfY), label: none (competitor), 3'-biotin (CLN-F-B, cells), synthetic backbone

Sequence | binding result [1, 3] | binding result [2, 3] | binding result [1, 4] | binding result [2, 4]
GGAGGGAAAAGTTATCAGGCATCACGTGGTGGGCAAATAACCGGTTGGGGTGGGTCGAGGGATTAGTTTTGGAGTACTCGCTCC [CLN118] | no binding | no binding |  | 
GGAGGGAAAAGTTATCAGGCCGCTAGTTACCAGGTGTAGCTGACCAAGCGGATGTGTGTTGATTAGTTTTGGAGTACTCGCTCC [CLN-F] |  |  | no binding | no binding
